Results published in publication PMC11237139.
Results are given in words; binding and its absence hold for the method and conditions named. In cells and extracts the contact can be indirect. A result given as binding can be weak or reduced; the word gives no strength.

Columns and labels:
Test in all cases: co-IP; N2a cells co-transfected with Flag-tagged receptor and Lrig1 plasmids, lysed after 48 h in TNTE buffer with 0.5% Triton-X-100; anti-Flag magnetic beads, 2 h at 4 °C; washed with TNTE 0.1% Triton; western blot for LRIG1 and FLAG
FLAG-tagged TGFβR2 = target: FLAG-tagged TGFβR2
FLAG-tagged TGFβR1 = target: FLAG-tagged TGFβR1
FLAG-tagged BMPR1B = target: FLAG-tagged BMPR1B

binding (FLAG-tagged TGFβR2): binds
binding (FLAG-tagged TGFβR1): binds
binding (FLAG-tagged BMPR1B): binds
B1: mouse LRIG1 (leucine-rich repeats and immunoglobulin-like domains protein 1), overexpressed from a pCMV plasmid (protein, UniProt P70193 35-1091)
chain: AQAGPRAPCAAACTCAGDSLDCSGRGLATLPRDLPSWTRSLNLSYNRLSEIDSAAFEDLTNLQEVYLNSNELTAIPSLGAASIGVVSLFLQHNKILSVDGSQLKSYLSLEVLDLSSNNITEIRSSCFPNGLRIRELNLASNRISILESGAFDGLSRSLLTLRLSKNRITQLPVKAFKLPRLTQLDLNRNRIRLIEGLTFQGLDSLEVLRLQRNNISRLTDGAFWGLSKMHVLHLEYNSLVEVNSGSLYGLTALHQLHLSNNSISRIQRDGWSFCQKLHELILSFNNLTRLDEESLAELSSLSILRLSHNAISHIAEGAFKGLKSLRVLDLDHNEISGTIEDTSGAFTGLDNLSKLTLFGNKIKSVAKRAFSGLESLEHLNLGENAIRSVQFDAFAKMKNLKELYISSESFLCDCQLKWLPPWLMGRMLQAFVTATCAHPESLKGQSIFSVLPDSFVCDDFPKPQIITQPETTMAVVGKDIRFTCSAASSSSSPMTFAWKKDNEVLANADMENFAHVRAQDGEVMEYTTILHLRHVTFGHEGRYQCIITNHFGSTYSHKARLTVNVLPSFTKIPHDIAIRTGTTARLECAATGHPNPQIAWQKDGGTDFPAARERRMHVMPDDDVFFITDVKIDDMGVYSCTAQNSAGSVSANATLTVLETPSLAVPLEDRVVTVGETVAFQCKATGSPTPRITWLKGGRPLSLTERHHFTPGNQLLVVQNVMIDDAGRYTCEMSNPLGTERAHSQLSILPTPGCRKDGTTVGIFTIAVVCSIVLTSLVWVCIIYQTRKKSEEYSVTNTDETIVPPDVPSYLSSQGTLSDRQETVVRTEGGHQANGHIESNGVCLRDPSLFPEVDIHSTTCRQPKLCVGYTREPWKVTEKADRTAAPHTTAHSGSAVCSDCSTDTAYHPQPVPRDSGQPGTASSQELRQHDREYSPHHPYSGTADGSHTLSGGSLYPSNHDRILPSLKNKAASADGNGDSSWTLAKLHEADCIDLKPSPTLASGSPELMEDAISTEAQHLLVSNGHLPKACDSSPESVPLKGQITGKRRGPLLLAPRS
